# In all, about 390,000 compounds went through this assay and about 760 (0.19%) were called active. The shares of active, inactive and inconclusive entries below differ from those in the screen. Calls come from the whole dose curve; as a rule, active = well fitted inhibition curve with a large enough effect; inconclusive = small, poorly fitted or top-dose-only effect; inactive = flat fitted curve, though single readings scatter. Potencies beside an inconclusive call are fits to weak or partial responses and may not hold up.
# Experiment: qHTS for Inhibitors of Vif-A3F Interactions: qHTS; note: nearly all actives have a fitted effect of over 65% in size; for activity, negative = active: % of control where 0% means no effect
# Conditions: HeLa A3F-eYFP + Vif (tagged APOBEC3F with the HIV-1 protein that degrades it), YFP fluorescence increase; series mostly up to 46.1 µM; activity, negative = active: at the top concentration
# Outline: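 Fluorescence increase (Ex 488/Em 500-530) after overnight compound treatment at 37 deg C flags inhibition of Vif-driven A3F-eYFP loss in stable HeLa A3F-eYFP/Vif cells seeded overnight beforehand.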
# Potency is the fitted concentration of half-maximal effect.
SMILES,Potency,"activity, negative = active"
CCOc1ccc(NC(=O)COc2ccccc2)c([N+](=O)[O-])c1,"inconclusive: 35.5 µM [inhibitor, single point]",
CN(C)Cc1c(C(=O)N/N=C/c2cccc(OCc3ccc(F)cc3)c2)nnn1-c1nonc1N,,inactive: 3.9%
CCCCCOc1ccc(CSCCNC(=S)Nc2ccccc2)cc1,"inconclusive: 25.1 µM [inhibitor, single point]",
Cc1ccc(NC(=O)Cc2ccc(-n3cccc3)cc2)c(C)c1,"inconclusive: 11.2 µM [inhibitor, partial curve]",
CCOc1ccc(OCC)c(NC(=O)CCCN2C(=S)NC(C)(C)CC2C)c1 (centres undefined),"inconclusive: 35.5 µM [inhibitor, single point]",
Cc1[nH]c2ccccc2c1C1(O)C(=O)N(Cc2ccccc2)c2ccc(Br)cc21 (centres undefined),,inactive: -6.63%
CC(C)CNS(=O)(=O)c1ccc(S(=O)(=O)N2CCC3(CC2)OCCO3)cc1,,inactive: -6.58%
CCCN(CC(=O)Nc1ccccc1Br)CC(=O)Nc1ccc(F)c(F)c1F,,inactive: -4.16%
COC(=O)Cn1c(O)c(N=NC(=O)CNC(=O)COc2cccc(C)c2)c2ccccc21,"inconclusive: 3.16 µM [inhibitor, partial curve, poor fit]",
O=C(Nc1ccc(Cl)cc1)[C@@H]1[C@@H]2C(=O)N(c3ccc4ccccc4c3)C(=O)[C@@H]2[C@H]2C=CC=NN21,,inactive: 5.29%
COC(=O)c1ccc2c(=O)n(CCN3CCOCC3)c(SCC(=O)c3ccccc3)nc2c1,,inactive: 1.17%
O=c1oc2cc(Oc3ccc(C(F)(F)F)cc3[N+](=O)[O-])ccc2c2c1CCC2,"inconclusive: 0.316 µM [inhibitor, full curve, poor fit]",
CC(=O)Nc1ccc(-c2ccc(NC(C)=O)cc2)cc1,"inconclusive: 6.31 µM [inhibitor, single point]",
CCN(CC)S(=O)(=O)c1ccc(O)c(NC(=O)COc2ccc(S(=O)(=O)N3CCOCC3)cc2)c1,"inconclusive: 35.5 µM [inhibitor, single point]",
C=CCn1c(SCC(=O)N2CCN(c3ccccc3)CC2)nnc1-c1ccco1,,inactive: 12.2%
O=C(CCN1CCCCC1)c1cccc(Cl)c1,"inconclusive: 15.8 µM [inhibitor, partial curve, poor fit]",
Cc1[nH]n(-c2ccccc2)c(=O)c1/C=N/NC(=O)c1cccc(F)c1,"inconclusive: 2.82 µM [inhibitor, single point]",
CN(C(=S)NC(=O)c1ccccc1Br)C1CCCCC1,,inactive: -6.26%
Brc1cnc2nc(SCc3nc4ccccc4[nH]3)[nH]c2c1,"inconclusive: 7.94 µM [inhibitor, partial curve, poor fit]",
COc1cc(/C=C/c2nc3ccccc3c(=O)[nH]2)cc(Br)c1O,"inconclusive: 8.91 µM [inhibitor, partial curve, poor fit]",
COc1cc([N+](=O)[O-])ccc1NC(=O)C1C2C=CC(C2)C1C(=O)O (centres undefined),"inconclusive: 6.31 µM [inhibitor, single point]",
NC(=O)c1cc(S(=O)(=O)Nc2cccc(Cl)c2)cs1,"inconclusive: 5.62 µM [inhibitor, single point]",
Cc1ccc(NC(=O)N2CCc3ccccc3C2)cc1C,,inactive: -7.51%

SMILES,Potency,"activity, negative = active"
CC(C)n1cnc2c(NCc3ccccc3)cc(N[C@H](C)CO)cc21,"inconclusive: 28.2 µM [inhibitor, partial curve, poor fit]",
COc1cc([N+](=O)[O-])ccc1N/C=C/C(=O)c1cccs1,"inconclusive: 22.4 µM [inhibitor, single point]",
COc1ccc(-c2nc(CCNC(=O)Cc3ccc(F)cc3)cs2)cc1,,inactive: 1.11%
Cc1nc(-c2ccc(F)cc2)c(CC(=O)N2CCN(S(=O)(=O)c3cccc([N+](=O)[O-])c3)CC2)s1,"inconclusive: 17.8 µM [inhibitor, partial curve, poor fit]",
Cc1cccc2c(=O)n3c(cc12)-c1[nH]c2ccccc2c1CC3,active: 22.4 µM,
Cc1ccc(NC(=O)CN(C)S(=O)(=O)c2ccc3c(c2)c(=O)n(C)c(=O)n3C)cc1,"inconclusive: 3.55 µM [inhibitor, partial curve, poor fit]",
CCOC(=O)c1ccc(-c2ccc(/C=C(\C#N)C(=O)Nc3cccc(C)c3)o2)cc1,"inconclusive: 3.55 µM [inhibitor, partial curve, poor fit]",
CSC1=C(C#N)C(c2ccccc2Cl)C2=C(N1)c1ccccc1C2=O (centres undefined),"inconclusive: 17.8 µM [inhibitor, single point]",
COc1cccc(NC(=O)CSc2nnc(Cn3cnc([N+](=O)[O-])n3)n2C)c1,"inconclusive: 0.562 µM [inhibitor, partial curve, poor fit]",
CCN(CC)c1ccc2c(c1)OC(N)=C(C#N)C2c1cccnc1 (centres undefined),"inconclusive: 15.8 µM [inhibitor, partial curve, poor fit]",
Cn1c(CCNC(=O)c2cccs2)n[nH]c1=S,"inconclusive: 10 µM [inhibitor, partial curve]",
Cc1ccc(Nc2cc(-c3ccccc3)nc3ncnn23)cc1,"inconclusive: 6.31 µM [inhibitor, partial curve]",
CCc1cc(C(=O)N(CC(C)C)c2c(N)n(Cc3ccccc3)c(=O)[nH]c2=O)sc1C,"inconclusive: 20 µM [inhibitor, partial curve, poor fit]",
CCn1c2ccccc2c2cc(NC(=O)C(C)OC(=O)c3ccc(NC(=O)CC#N)cc3)ccc21 (centres undefined),"inconclusive: 28.2 µM [inhibitor, single point]",
Cc1cccc(NC(=S)NC2CCSc3ccccc32)c1 (centres undefined),"inconclusive: 35.5 µM [inhibitor, single point]",
COc1ccc(NC(=O)c2cccc3c(Br)cccc23)cc1,,inactive: -4.02%
CCCC(=O)N(c1ccc2oc3c(c2c1)CCCC3)S(=O)(=O)c1ccc(CC)cc1,,inactive: 5.92%
Cc1cccc(C)c1Nc1nnc(SCc2nc3ccccc3c(=O)[nH]2)s1,"inconclusive: 35.5 µM [inhibitor, single point]",
COC(=O)c1c(SC)nc2ccccc2c1OCc1cccc(C)c1,,inactive: -6.37%
O=c1c2ccccc2nc(COc2ccccc2)n1/N=C/c1ccc(O)cc1O,,inactive: -7.35%
Cc1cccc(NC(=O)C(C)SCc2nc3sc(C)c(C)c3c(=O)[nH]2)n1 (centres undefined),"inconclusive: 7.94 µM [inhibitor, partial curve, poor fit]",
NC(=S)N/N=C1/CCSc2ccc3ccccc3c21,"inconclusive: 3.55 µM [inhibitor, partial curve, poor fit]",
Fc1ccccc1/C=N/Nc1ncnc2ccccc12,"inconclusive: 35.5 µM [inhibitor, single point]",

SMILES,Potency,"activity, negative = active"
C(=NN=C(NN=Cc1cccs1)NN=Cc1cccs1)c1cccs1,"inconclusive: 6.31 µM [inhibitor, single point]",
FC(F)(F)c1cnc(N/N=C/c2ccncc2)c(Cl)c1,"inconclusive: 6.31 µM [inhibitor, single point]",
CC(C)(C)OC(=O)Cn1c(=O)cnc2ccccc21,"inconclusive: 28.2 µM [inhibitor, partial curve, poor fit]",
CCOC(=O)c1ccc(NC(=S)Nc2cccc(C)n2)cc1,active: 11.2 µM,
CCOc1ccc(-n2cc(-c3ccccc3)c3c(=O)[nH]cnc32)cc1,,inactive: 3.5%
CCOc1ccc(CNc2cccc(SC)c2)cc1,"inconclusive: 6.31 µM [inhibitor, single point]",
COc1ccc(CC(=O)NCc2ccccc2)cc1,,inactive: -13.1%
CCOC(=O)c1sc(NC(=O)Nc2cccc(Cl)c2)cc1C,"inconclusive: 35.5 µM [inhibitor, single point]",
CN(C)c1ccc(/C=C/C(=O)c2cccnc2)cc1,"inconclusive: 35.5 µM [inhibitor, single point]",
CCc1ccc(NC(=O)c2cnccn2)cc1,"inconclusive: 6.31 µM [inhibitor, single point]",
Cc1[nH]n(C(N)=S)c(=O)c1N=Nc1ccc2ccccc2c1,"inconclusive: 0.631 µM [inhibitor, full curve, poor fit]",
CCN(c1ccccc1)S(=O)(=O)c1ccc(OC)c(NC(=O)CN2C(=O)NC(C)(C)C2=O)c1,"inconclusive: 2 µM [inhibitor, partial curve, poor fit]",
O=C(CC1SC(=NCCc2ccccc2)N(/N=C/c2cccs2)C1=O)Nc1ccc(Cl)cc1 (centres undefined),"inconclusive: 22.4 µM [inhibitor, partial curve, poor fit]",
CCCCC(=O)Nc1cccc(NC(=S)NC(=O)C(C)C)c1,,inactive: 1.05%
Cc1cccc(C)c1NC(=O)COC(=O)c1ccc2[nH]c3c(c2c1)CCCC3,"inconclusive: 22.4 µM [inhibitor, partial curve, poor fit]",
O=C(Nc1ccccc1)NN(C(=O)CCl)c1ccccc1,,inactive: 1.62%
COc1ccc(OC)cc1,,inactive: 8.65%
Oc1cccc(Nc2nc(O)c(/C=C3\C=Nc4ccccc43)s2)c1,active: 11.2 µM,
CCN(CC)CCNC(=O)c1ccc2c(c1)sc1nc(-c3ccc(F)cc3)cn12,"inconclusive: 35.5 µM [inhibitor, single point]",
Cc1cc(Cl)ccc1NC(=S)Nc1cccnc1,,inactive: -2.41%
O=C(Nc1cc(-c2nc3ncccc3o2)ccc1Cl)c1ccc([N+](=O)[O-])o1,"inconclusive: 8.91 µM [inhibitor, partial curve, poor fit]",
COc1cc2c(O)c3c(c(-c4ccc5c(c4)OCO5)c2cc1OC)C(=O)OC3,,inactive: -6.69%
CCCCCCC[C@@H](C/C=C/CCC(=O)N(C)C/C(=C/Cl)C/C(=C\C(=O)N1CC(OC)=CC1=O)OC)OC,"inconclusive: 17.8 µM [inhibitor, partial curve, poor fit]",

# Some of the entries above in a different format.
SMILES	Potency	activity, negative = active
O=C(CC1SC(=NCCc2ccccc2)N(/N=C/c2cccs2)C1=O)Nc1ccc(Cl)cc1 (centres undefined)	inconclusive: 22.4 µM [inhibitor, partial curve, poor fit]	
CCCCC(=O)Nc1cccc(NC(=S)NC(=O)C(C)C)c1		inactive: 1.05%
Cc1cccc(C)c1NC(=O)COC(=O)c1ccc2[nH]c3c(c2c1)CCCC3	inconclusive: 22.4 µM [inhibitor, partial curve, poor fit]	

# — PubChem BioAssay AID602313 (National Center for Advancing Translational Sciences (NCATS), 2012)
